PMC8494293, “Relief of ParB autoinhibition by parS DNA catalysis and recycling of ParB by CTP hydrolysis promote bacterial centromere assembly” (Science Advances, 2021)
Residue numbers refer to the chain shown, from its start. Numbers in names are those of the source. No constants are given. Whether binding was seen depends on the method and setting. Binding seen in cells or lysates may run through a third protein. Some binding calls cover weakened binding; strength is not graded here. Values belong to the binder of their own block, whether it stands above or below them.

How the values were obtained:
[1] = target: ParB(T22C)-HT (B. subtilis) (UniProt P26497); assay: cross-linking; in vivo BMOE (0.5 mM) cysteine cross-linking of ParB-HT in B. subtilis cells on ice, HaloTag-TMR in-gel fluorescence after SDS-PAGE; also in a strain lacking eight parS sites
[2] = target: ParB(T22C, E78Q)-HT (B. subtilis) (UniProt P26497); assay: as above
[3] = target: ParB(A102C, H133C)-HT (B. subtilis) (UniProt P26497); assay: as above
[4] = target: ParB(R105C, H133C, S278C)-HT in combination with E111Q (B. subtilis) (UniProt P26497); assay: cross-linking; chromosome entrapment assay: in vivo BMOE cross-linking to covalently closed circular ParB-HT species, input and eluate from agarose beads under denaturing conditions, in-gel fluorescence
[5] = target: ParB(R105C, H133C, E78Q)-HT (B. subtilis) (UniProt P26497); assay: cross-linking; in vivo BMOE (0.5 mM) cysteine cross-linking of ParB-HT in B. subtilis cells on ice, HaloTag-TMR in-gel fluorescence after SDS-PAGE; also in a strain lacking eight parS sites
[6] = target: ParB(T22C, E111Q)-HT (B. subtilis) (UniProt P26497); assay: as above
[7] = target: ParB(R105C, H133C, E111Q)-HT (B. subtilis) (UniProt P26497); assay: as above
[8] = target: ParB(R105C, H133C)-HT (B. subtilis) (UniProt P26497); assay: as above
[9] = target: ParB(A102C, L134C)-HT (B. subtilis) (UniProt P26497); assay: as above
[10] = target: ParB(R105C, L134C)-HT (B. subtilis) (UniProt P26497); assay: as above
[11] = target: ParB(R105C, H133C, S278C)-HT in combination with E78Q (B. subtilis) (UniProt P26497); assay: cross-linking; chromosome entrapment assay: in vivo BMOE cross-linking to covalently closed circular ParB-HT species, input and eluate from agarose beads under denaturing conditions, in-gel fluorescence

B3: ParB(A102C, H133C) (natural protein, B. subtilis, UniProt P26497 1-282, looked up)
chain: MAKGLGKGINALFNQVDLSEETVEEIKIADLRPNPYQPRKHFDDEALAELKESVLQHGILQPLIVRKSLKGYDIVAGERRFRAAKLAGLDTVPAIVRELSECLMREIALLENLQREDLSPLEEAQAYDSLLKCLDLTQEQLAKRLGKSRPHIANHLRLLTLPENIQQLIAEGTLSMGHGRTLLGLKNKNKLEPLVQKVIAEQLNVRQLEQLIQQLNQNVPRETKKKEPVKDAVLKERESYLQNYFGTTVNIKRQKKKGKIEIEFFSNEDLDRILELLSERES
notes: ParB, B. subtilis, untagged recombinant protein with cysteines at the N-M interface; source: E. coli BL21-Gold (DE3), purified (ammonium sulfate, heparin, HiTrap SP, Superdex 200)
binding [3]: binds

B4: ParB(R105C, H133C, S278C)-HT in combination with E111Q (protein, UniProt P26497 1-282)
chain: B3 chain with C102A, R105C, E111Q, S278C
binding [4]: binds

B8: ParB(R105C, H133C) (natural protein, B. subtilis, UniProt P26497 1-282, looked up)
chain: B3 chain with C102A, R105C
notes: as for B3
binding [8]: binds weakly

B9: ParB(A102C, L134C)-HT (protein, UniProt P26497 1-282)
chain: B3 chain with C133H, L134C
binding [9]: binds

B11: ParB(R105C, H133C, S278C)-HT in combination with E78Q (protein, UniProt P26497 1-282)
chain: B3 chain with E78Q, C102A, R105C, S278C
binding [11]: binds

Second part, the binder after the results:

binding [1]: binds weakly
B1: ParB(T22C) (natural protein, B. subtilis, UniProt P26497 1-282, looked up)
chain: B3 chain with T22C, C102A, C133H
notes: ParB, B. subtilis, untagged recombinant protein with a cysteine at the N-gate; source: E. coli BL21-Gold (DE3), purified (ammonium sulfate, heparin, HiTrap SP, Superdex 200)

binding [2]: binds
B2: ParB(T22C, E78Q)-HT (protein, UniProt P26497 1-282)
chain: B3 chain with T22C, E78Q, C102A, C133H

binding [5]: binds
B5: ParB(R105C, H133C, E78Q)-HT (protein, UniProt P26497 1-282)
chain: B3 chain with E78Q, C102A, R105C

binding [6]: binds
B6: ParB(T22C, E111Q)-HT (protein, UniProt P26497 1-282)
chain: B3 chain with T22C, C102A, E111Q, C133H

binding [7]: binds
B7: ParB(R105C, H133C, E111Q)-HT (protein, UniProt P26497 1-282)
chain: B3 chain with C102A, R105C, E111Q

binding [10]: binds weakly
B10: ParB(R105C, L134C)-HT (protein, UniProt P26497 1-282)
chain: B3 chain with C102A, R105C, C133H, L134C
